Reference: publication PMC8631636

Protein sequences, listed by entry. Tags and fused reporters are not part of them. Lines headed by an entry give the natural chain unless they say otherwise; changes in a name come on top.
UniProt Q8BLR2: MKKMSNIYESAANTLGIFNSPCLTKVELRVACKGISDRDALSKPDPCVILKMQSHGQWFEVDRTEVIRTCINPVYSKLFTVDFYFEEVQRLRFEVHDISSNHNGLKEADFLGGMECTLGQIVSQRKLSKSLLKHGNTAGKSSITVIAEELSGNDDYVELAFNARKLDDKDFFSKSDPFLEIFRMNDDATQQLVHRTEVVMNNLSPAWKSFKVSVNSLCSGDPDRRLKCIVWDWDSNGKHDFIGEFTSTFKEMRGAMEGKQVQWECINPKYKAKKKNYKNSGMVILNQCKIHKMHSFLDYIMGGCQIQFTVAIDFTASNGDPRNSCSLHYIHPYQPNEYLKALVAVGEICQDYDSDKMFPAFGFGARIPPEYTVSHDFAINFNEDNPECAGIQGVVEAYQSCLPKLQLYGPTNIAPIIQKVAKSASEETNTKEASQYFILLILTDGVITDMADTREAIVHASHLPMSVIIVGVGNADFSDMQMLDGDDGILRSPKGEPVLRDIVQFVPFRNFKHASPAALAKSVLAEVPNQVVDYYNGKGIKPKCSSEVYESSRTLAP

Target: Cpne4 vWA domain (yeast two-hybrid bait) (UniProt Q8BLR2)
Assay: two-hybrid; Gal4 based; Cpne4 vWA domain in pGBKT7 (Y187) as bait mated with an adult mouse retina cDNA library in pGADT7 (AH109) as prey; quadruple selection (Trp, Leu, Ade, His) with X-alpha-Gal, 30°C; positive clones replated, colony PCR and Sanger sequencing

B1: Tox3 Y2H clone (amino acids 200-492) (domain or fragment, UniProt Q80W03 200-492)
chain: SPPASKSATPSPSSSINEEDADDANRAIGEKRTAPDSGKKPKTPKKKKKKDPNEPQKPVSAYALFFRDTQAAIKGQNPNATFGEVSKIVASMWDSLGEEQKQVYKRKTEAAKKEYLKALAAYRASLVSKAAAESAEAQTIRSVQQTLASTNLTSSLLLNTSLSQHGTVPASPQTLPQSLPRSIAPKPLTMRLPMSQIVTSVTIAANMPSNIGAPLISSMGTTMVGSATSTQVSPSVQTQQHQMQLQQQQQQQQQMQQMQQQQLQQHQMHQQIQQQMQQQHFQHHMQQHLQQQQ
binding: binds

These are yes or no findings as the source states them, for the method shown. Binding calls can cover weak binding; strength is not graded here.
